According to patent US7365173:
Results are given in words; binding and its absence hold for the method and conditions named. Some results given as binding are weak or reduced against the parent protein; the word gives no strength.

Amino acid sequences for entries named in this document (tags omitted). Residues count along the entry.
UniProt P06276, residues 29-602: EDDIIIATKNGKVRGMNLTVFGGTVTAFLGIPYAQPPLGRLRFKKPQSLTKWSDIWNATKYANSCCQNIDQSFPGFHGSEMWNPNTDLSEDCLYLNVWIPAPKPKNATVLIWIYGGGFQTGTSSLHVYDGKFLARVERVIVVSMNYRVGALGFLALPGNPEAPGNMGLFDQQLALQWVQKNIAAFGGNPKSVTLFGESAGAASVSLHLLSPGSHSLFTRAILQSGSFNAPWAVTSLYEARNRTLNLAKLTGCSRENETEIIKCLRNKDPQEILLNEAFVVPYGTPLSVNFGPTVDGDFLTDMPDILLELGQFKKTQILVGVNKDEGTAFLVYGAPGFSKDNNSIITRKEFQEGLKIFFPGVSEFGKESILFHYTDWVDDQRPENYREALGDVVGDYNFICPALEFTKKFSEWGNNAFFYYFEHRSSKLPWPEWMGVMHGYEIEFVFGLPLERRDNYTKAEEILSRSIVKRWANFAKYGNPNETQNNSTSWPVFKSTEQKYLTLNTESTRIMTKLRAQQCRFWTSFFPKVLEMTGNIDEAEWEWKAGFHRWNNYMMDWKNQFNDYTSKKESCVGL

These binders were tested against butyrylcholinesterase (human) (UniProt P06276) (assay: screen of bead-bound combinatorial peptide library with radiolabeled butyrylcholinesterase plus butyrylthiocholine/DTNB activity stain).

For AKDQIP [AKDQIP (SEQ ID NO: 1)], which binding is on record?
The binding was “binds”.

For AKGDQN [AKGDQN (SEQ ID NO: 2)], which binding is on record?
The binding was “binds”.

WKDAVQ [WKDAVQ (SEQ ID NO: 3)] was tested. Which binding did it give?
Its binding is “binds”.

Which binding does the source give for AFTNGE [AFTNGE (SEQ ID NO: 6)] here?
Its binding is “binds”.

How did the binding turn out when AFTNQE [AFTNQE (SEQ ID NO: 7)] was run?
The binding was “binds”.

For GTNYHQ [GTNYHQ (SEQ ID NO: 8)], which binding is on record?
The binding was “binds”.

How did the binding turn out when AEVDPG [AEVDPG (SEQ ID NO: 9)] was run?
Its binding is “binds”.
